Measured values taken from publication PMC10733324.
Results are given in words; binding and its absence hold for the method and conditions named. In cells and extracts the contact can be indirect. Some results given as binding are weak or reduced against the parent protein; the word gives no strength. Where a sequence is shown, tags or fusion partners need not be part of it.

Protein sequences, listed by entry. Tags and fused reporters are not part of them.
UniProt Q5T011: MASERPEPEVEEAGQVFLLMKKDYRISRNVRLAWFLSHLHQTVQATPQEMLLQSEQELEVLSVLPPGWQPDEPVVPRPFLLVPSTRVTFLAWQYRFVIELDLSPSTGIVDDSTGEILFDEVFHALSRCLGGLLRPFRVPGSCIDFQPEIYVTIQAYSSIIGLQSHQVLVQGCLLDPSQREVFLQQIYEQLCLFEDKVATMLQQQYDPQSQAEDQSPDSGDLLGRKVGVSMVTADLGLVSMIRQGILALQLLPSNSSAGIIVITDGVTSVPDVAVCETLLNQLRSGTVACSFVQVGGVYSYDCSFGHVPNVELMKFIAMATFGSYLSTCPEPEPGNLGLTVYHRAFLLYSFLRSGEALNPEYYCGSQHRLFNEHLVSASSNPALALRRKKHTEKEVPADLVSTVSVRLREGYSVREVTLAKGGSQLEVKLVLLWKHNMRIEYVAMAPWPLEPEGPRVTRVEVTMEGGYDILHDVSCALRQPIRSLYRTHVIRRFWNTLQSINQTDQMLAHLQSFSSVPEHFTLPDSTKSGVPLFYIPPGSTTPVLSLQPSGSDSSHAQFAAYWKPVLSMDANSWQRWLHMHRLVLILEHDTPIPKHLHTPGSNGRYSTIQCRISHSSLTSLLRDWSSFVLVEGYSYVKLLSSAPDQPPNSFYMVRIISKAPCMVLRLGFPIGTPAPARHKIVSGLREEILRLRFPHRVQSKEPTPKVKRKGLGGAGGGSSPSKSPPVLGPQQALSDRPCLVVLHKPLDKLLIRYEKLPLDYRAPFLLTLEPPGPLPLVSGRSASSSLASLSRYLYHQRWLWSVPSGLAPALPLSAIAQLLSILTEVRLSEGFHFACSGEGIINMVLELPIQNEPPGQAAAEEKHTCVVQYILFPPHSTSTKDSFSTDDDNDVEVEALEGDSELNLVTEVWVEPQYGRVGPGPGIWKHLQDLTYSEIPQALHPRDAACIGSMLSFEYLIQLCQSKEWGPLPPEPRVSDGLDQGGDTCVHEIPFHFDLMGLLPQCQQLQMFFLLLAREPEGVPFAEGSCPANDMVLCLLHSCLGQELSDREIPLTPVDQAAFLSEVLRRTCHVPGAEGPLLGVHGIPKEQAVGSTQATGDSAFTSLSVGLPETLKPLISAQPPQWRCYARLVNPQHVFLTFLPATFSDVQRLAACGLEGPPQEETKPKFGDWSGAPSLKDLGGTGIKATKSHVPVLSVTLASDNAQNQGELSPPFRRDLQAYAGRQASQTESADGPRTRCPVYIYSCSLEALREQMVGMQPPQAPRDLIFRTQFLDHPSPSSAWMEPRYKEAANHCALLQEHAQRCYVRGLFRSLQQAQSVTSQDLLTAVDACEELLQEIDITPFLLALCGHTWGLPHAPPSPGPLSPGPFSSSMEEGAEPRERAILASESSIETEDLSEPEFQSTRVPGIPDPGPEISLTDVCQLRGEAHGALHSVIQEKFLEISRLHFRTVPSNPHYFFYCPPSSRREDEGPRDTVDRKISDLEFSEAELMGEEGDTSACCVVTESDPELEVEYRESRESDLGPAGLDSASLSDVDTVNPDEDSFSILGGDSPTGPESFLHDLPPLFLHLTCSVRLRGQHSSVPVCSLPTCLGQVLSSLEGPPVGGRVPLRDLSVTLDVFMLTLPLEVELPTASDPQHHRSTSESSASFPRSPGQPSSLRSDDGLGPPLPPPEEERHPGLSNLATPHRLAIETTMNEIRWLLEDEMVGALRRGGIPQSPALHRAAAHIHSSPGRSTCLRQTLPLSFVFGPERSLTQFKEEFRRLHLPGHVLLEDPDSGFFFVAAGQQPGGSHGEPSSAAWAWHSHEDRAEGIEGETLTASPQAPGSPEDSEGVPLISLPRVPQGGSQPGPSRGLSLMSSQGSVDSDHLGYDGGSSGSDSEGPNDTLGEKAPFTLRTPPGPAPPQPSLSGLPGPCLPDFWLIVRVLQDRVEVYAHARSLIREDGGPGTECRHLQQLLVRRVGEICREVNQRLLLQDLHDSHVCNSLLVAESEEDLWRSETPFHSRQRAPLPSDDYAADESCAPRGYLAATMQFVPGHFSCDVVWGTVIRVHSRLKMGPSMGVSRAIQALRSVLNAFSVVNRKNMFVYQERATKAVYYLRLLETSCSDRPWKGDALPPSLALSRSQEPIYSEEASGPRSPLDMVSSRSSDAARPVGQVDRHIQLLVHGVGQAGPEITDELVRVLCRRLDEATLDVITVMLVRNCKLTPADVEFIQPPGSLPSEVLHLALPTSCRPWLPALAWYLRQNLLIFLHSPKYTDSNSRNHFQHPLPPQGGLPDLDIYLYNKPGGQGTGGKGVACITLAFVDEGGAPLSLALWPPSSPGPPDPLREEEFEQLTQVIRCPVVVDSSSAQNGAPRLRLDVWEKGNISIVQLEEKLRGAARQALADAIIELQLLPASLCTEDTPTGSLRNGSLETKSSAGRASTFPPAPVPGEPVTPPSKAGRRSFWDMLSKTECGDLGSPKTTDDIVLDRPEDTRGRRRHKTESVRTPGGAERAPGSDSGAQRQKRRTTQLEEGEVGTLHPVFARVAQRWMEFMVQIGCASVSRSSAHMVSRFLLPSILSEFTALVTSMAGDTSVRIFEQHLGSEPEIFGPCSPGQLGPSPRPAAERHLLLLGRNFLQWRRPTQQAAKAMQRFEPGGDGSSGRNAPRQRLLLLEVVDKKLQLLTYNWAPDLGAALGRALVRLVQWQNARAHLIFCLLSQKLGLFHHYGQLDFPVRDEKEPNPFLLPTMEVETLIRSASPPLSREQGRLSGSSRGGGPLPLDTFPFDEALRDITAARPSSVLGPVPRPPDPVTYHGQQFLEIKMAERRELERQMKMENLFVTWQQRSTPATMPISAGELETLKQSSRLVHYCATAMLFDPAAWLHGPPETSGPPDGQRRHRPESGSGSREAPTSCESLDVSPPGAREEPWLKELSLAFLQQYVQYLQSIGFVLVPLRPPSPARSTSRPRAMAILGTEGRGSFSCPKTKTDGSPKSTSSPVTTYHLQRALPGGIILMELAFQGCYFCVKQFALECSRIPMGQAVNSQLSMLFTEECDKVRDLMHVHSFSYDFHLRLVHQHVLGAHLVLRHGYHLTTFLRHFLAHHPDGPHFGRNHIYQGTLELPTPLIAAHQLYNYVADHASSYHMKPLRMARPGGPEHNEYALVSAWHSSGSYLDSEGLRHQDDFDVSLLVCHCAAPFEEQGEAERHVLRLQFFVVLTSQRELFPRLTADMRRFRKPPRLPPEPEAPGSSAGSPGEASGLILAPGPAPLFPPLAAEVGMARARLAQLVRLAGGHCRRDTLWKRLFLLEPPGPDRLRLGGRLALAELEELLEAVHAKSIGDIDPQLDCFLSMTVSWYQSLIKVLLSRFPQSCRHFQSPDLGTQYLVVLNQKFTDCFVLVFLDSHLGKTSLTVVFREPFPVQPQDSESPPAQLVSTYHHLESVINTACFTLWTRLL
UniProt O75140: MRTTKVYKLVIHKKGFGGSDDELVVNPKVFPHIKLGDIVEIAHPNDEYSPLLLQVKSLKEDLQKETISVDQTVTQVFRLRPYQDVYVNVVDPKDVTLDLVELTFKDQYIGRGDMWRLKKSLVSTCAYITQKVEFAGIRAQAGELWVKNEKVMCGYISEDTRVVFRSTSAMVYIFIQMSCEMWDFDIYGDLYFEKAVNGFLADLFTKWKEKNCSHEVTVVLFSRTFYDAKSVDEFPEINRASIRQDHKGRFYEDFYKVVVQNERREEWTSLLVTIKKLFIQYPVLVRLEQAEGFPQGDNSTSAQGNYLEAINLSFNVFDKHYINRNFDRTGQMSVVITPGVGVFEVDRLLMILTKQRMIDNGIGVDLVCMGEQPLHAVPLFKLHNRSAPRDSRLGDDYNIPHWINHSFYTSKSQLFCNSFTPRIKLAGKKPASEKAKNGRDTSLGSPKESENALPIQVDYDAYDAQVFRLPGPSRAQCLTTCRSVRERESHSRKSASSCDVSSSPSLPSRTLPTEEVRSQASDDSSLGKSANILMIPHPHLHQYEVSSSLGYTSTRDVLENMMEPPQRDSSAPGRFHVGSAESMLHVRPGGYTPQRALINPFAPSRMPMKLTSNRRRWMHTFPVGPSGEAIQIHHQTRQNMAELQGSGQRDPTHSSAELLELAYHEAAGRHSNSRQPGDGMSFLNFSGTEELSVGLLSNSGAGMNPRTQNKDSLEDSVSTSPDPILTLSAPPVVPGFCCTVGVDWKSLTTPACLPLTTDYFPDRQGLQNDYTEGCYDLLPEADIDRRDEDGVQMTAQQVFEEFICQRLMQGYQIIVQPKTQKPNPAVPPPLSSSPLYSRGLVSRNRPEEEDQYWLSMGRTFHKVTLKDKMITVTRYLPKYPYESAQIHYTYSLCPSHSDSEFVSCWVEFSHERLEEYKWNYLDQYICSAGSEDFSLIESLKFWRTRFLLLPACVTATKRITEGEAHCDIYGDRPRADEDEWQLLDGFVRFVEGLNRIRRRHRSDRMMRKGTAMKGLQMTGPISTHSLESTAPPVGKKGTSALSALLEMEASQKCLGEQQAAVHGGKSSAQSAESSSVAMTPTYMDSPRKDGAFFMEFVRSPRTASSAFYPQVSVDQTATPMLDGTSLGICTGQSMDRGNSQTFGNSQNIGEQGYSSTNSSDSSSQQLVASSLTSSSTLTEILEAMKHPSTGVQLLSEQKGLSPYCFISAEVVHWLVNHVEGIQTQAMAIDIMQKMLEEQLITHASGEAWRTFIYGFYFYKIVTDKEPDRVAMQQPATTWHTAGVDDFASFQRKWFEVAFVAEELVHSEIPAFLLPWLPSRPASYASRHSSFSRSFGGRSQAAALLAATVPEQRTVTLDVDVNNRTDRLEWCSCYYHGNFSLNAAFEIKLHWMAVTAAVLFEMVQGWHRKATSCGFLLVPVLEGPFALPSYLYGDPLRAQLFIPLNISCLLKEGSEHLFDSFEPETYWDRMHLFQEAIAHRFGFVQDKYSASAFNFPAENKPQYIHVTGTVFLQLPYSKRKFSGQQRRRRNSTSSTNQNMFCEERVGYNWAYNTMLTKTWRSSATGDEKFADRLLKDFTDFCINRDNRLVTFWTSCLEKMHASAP

Columns and labels:
[1] = target: T1, FLAG-tagged VWCE (von Willebrand factor C and EGF domains) (UniProt Q96DN2); assay: co-IP; cells transiently expressing the indicated cDNAs; amino acid starvation or restimulation before lysis; Triton X-100 lysis buffer, FLAG or HA agarose beads 2 h at 4 °C, washes with 150 mM NaCl; immunoblotting
T1 sequence: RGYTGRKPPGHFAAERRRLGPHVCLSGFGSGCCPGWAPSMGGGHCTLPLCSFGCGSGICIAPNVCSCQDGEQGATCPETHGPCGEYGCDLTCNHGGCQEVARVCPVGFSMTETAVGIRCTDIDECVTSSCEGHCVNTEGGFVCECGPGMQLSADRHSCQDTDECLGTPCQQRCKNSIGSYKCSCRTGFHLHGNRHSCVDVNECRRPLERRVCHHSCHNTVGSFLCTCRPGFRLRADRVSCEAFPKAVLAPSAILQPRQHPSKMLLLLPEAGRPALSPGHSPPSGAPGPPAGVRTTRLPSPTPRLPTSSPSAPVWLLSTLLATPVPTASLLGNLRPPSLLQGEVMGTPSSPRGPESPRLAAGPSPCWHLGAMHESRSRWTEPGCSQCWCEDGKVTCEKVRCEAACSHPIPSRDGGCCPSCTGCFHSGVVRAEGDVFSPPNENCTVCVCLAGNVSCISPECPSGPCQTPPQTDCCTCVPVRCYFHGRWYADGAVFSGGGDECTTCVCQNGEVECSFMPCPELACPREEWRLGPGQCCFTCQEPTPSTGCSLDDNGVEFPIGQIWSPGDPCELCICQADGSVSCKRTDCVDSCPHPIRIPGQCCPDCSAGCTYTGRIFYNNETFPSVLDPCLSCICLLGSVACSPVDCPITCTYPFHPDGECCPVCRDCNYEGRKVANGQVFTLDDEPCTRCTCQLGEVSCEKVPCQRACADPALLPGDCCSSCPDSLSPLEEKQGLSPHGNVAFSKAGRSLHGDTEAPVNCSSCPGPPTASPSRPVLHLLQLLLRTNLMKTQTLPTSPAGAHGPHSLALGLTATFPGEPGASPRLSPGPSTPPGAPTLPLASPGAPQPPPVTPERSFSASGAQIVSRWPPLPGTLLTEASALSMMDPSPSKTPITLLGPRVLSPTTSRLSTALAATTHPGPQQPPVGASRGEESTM

[2] = target: T1, FLAG-tagged VWCE (von Willebrand factor C and EGF domains); assay: co-IP; cells stably expressing FLAG-tagged VWCE transfected with HA-tagged cDNAs; amino acid starvation or restimulation before lysis; also in cells knocked out for KICSTOR components, GATOR1 or GATOR2; Triton X-100 lysis buffer, FLAG or HA agarose beads 2 h at 4 °C, washes with 150 mM NaCl …
[3] = target: SZT2 (no tag named) (UniProt Q5T011); assay: co-IP; cells transfected with siCtrl or siVWCE and the indicated cDNAs; Triton X-100 lysis buffer, FLAG or HA agarose beads 2 h at 4 °C, washes with 150 mM NaCl; immunoblotting
[4] = target: HA-DEPDC5 (UniProt O75140); assay: as above
[5] = target: T2, KPTN (no tag named) (UniProt Q9Y664); assay: as above
T2 sequence: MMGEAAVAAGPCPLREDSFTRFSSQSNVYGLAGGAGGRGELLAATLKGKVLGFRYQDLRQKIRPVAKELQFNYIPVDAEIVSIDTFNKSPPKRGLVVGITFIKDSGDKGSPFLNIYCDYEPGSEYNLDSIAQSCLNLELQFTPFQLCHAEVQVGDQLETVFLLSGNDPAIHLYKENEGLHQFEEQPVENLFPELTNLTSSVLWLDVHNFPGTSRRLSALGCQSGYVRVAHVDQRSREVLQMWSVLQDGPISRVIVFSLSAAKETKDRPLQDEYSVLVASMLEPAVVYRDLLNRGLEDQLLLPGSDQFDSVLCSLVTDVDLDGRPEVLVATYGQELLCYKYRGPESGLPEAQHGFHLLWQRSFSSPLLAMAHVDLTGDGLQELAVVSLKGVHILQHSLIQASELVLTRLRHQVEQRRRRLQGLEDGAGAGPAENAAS

B1: HA-tagged KPTN (protein, UniProt Q9Y664 1-436)
chain: MMGEAAVAAGPCPLREDSFTRFSSQSNVYGLAGGAGGRGELLAATLKGKVLGFRYQDLRQKIRPVAKELQFNYIPVDAEIVSIDTFNKSPPKRGLVVGITFIKDSGDKGSPFLNIYCDYEPGSEYNLDSIAQSCLNLELQFTPFQLCHAEVQVGDQLETVFLLSGNDPAIHLYKENEGLHQFEEQPVENLFPELTNLTSSVLWLDVHNFPGTSRRLSALGCQSGYVRVAHVDQRSREVLQMWSVLQDGPISRVIVFSLSAAKETKDRPLQDEYSVLVASMLEPAVVYRDLLNRGLEDQLLLPGSDQFDSVLCSLVTDVDLDGRPEVLVATYGQELLCYKYRGPESGLPEAQHGFHLLWQRSFSSPLLAMAHVDLTGDGLQELAVVSLKGVHILQHSLIQASELVLTRLRHQVEQRRRRLQGLEDGAGAGPAENAAS
binding [1]: binds | binding [2]: binds

B2: C12orf66 (no tag named) (protein, UniProt Q96MD2 1-445)
chain: MGESIPLAAPVPVEQAVLETFFSHLGIFSYDKAKDNVEKEREANKSAGGSWLSLLAALAHLAAAEKVYHSLTYLGQKLGGQSFFSRKDSIRTIYTSLHNELKKVVTGRGALGGTAPHVEELLSHLSEQLCFFVQARMEIADFYEKMYTLSTQKFINAEELVGLLDAIMKKYSSRFHHPILSPLESSFQLEVDVLCHLLKAQAQVSEWKFLPSLVNLHSAHTKLQTWGQIFEKQRETKKHLFGGQSQKAVQPPHLFLWLMKLKNMLLAKFSFYFHEALSRQTTASEMKTLTAKANPDFFGKISSFIRKYDAANVSLIFDNRGSESFQGHGYHHPHSYREAPKGVDQYPAVVSLPSDRPVMHWPNVIMIMTDRTSDLNSLEKVVHFYDDKVQSTYFLTRPEPHFTIVIIFESKKSERDSHFISFLNEVSLALKNPKVFASLKPGAKG
binding [3]: binds

B3: HA-tagged ITFG2 (protein, UniProt Q969R8 1-447)
chain: MRSVSYVQRVALEFSGSLFPHAICLGDVDNDTLNELVVGDTSGKVSVYKNDDSRPWLTCSCQGMLTCVGVGDVCNKGKNLLVAVSAEGWFHLFDLTPAKVLDASGHHETLIGEEQRPVFKQHIPANTKVMLISDIDGDGCRELVVGYTDRVVRAFRWEELGEGPEHLTGQLVSLKKWMLEGQVDSLSVTLGPLGLPELMVSQPGCAYAILLCTWKKDTGSPPASEGPTDGSRETPAARDVVLHQTSGRIHNKNVSTHLIGNIKQGHGTESSGSGLFALCTLDGTLKLMEEMEEADKLLWSVQVDHQLFALEKLDVTGNGHEEVVACAWDGQTYIIDHNRTVVRFQVDENIRAFCAGLYACKEGRNSPCLVYVTFNQKIYVYWEVQLERMESTNLVKLLETKPEYHSLLQELGVDPDDLPVTRALLHQTLYHPDQPPQCAPSSLQDPT
binding [2]: binds

B4: MIOS (protein, UniProt Q9NXC5 1-875)
chain: MSGTKPDILWAPHHVDRFVVCDSELSLYHVESTVNSELKAGSLRLSEDSAATLLSINSDTPYMKCVAWYLNYDPECLLAVGQANGRVVLTSLGQDHNSKFKDLIGKEFVPKHARQCNTLAWNPLDSNWLAAGLDKHRADFSVLIWDICSKYTPDIVPMEKVKLSAGETETTLLVTKPLYELGQNDACLSLCWLPRDQKLLLAGMHRNLAIFDLRNTSQKMFVNTKAVQGVTVDPYFHDRVASFYEGQVAIWDLRKFEKPVLTLTEQPKPLTKVAWCPTRTGLLATLTRDSNIIRLYDMQHTPTPIGDETEPTIIERSVQPCDNYIASFAWHPTSQNRMIVVTPNRTMSDFTVFERISLAWSPITSLMWACGRHLYECTEEENDNSLEKDIATKMRLRALSRYGLDTEQVWRNHILAGNEDPQLKSLWYTLHFMKQYTEDMDQKSPGNKGSLVYAGIKSIVKSSLGMVESSRHNWSGLDKQSDIQNLNEERILALQLCGWIKKGTDVDVGPFLNSLVQEGEWERAAAVALFNLDIRRAIQILNEGASSEKGDLNLNVVAMALSGYTDEKNSLWREMCSTLRLQLNNPYLCVMFAFLTSETGSYDGVLYENKVAVRDRVAFACKFLSDTQLNRYIEKLTNEMKEAGNLEGILLTGLTKDGVDLMESYVDRTGDVQTASYCMLQGSPLDVLKDERVQYWIENYRNLLDAWRFWHKRAEFDIHRSKLDPSSKPLAQVFVSCNFCGKSISYSCSAVPHQGRGFSQYGVSGSPTKSKVTSCPGCRKPLPRCALCLINMGTPVSSCPGGTKSDEKVDLSKDKKLAQFNNWFTWCHNCRHGGHAGHMLSWFRDHAECPVSACTCKCMQLDTTGNLVPAETVQP
binding [4]: binds

B5: KPTN (no tag named) (protein, UniProt Q9Y664 1-436)
chain: MMGEAAVAAGPCPLREDSFTRFSSQSNVYGLAGGAGGRGELLAATLKGKVLGFRYQDLRQKIRPVAKELQFNYIPVDAEIVSIDTFNKSPPKRGLVVGITFIKDSGDKGSPFLNIYCDYEPGSEYNLDSIAQSCLNLELQFTPFQLCHAEVQVGDQLETVFLLSGNDPAIHLYKENEGLHQFEEQPVENLFPELTNLTSSVLWLDVHNFPGTSRRLSALGCQSGYVRVAHVDQRSREVLQMWSVLQDGPISRVIVFSLSAAKETKDRPLQDEYSVLVASMLEPAVVYRDLLNRGLEDQLLLPGSDQFDSVLCSLVTDVDLDGRPEVLVATYGQELLCYKYRGPESGLPEAQHGFHLLWQRSFSSPLLAMAHVDLTGDGLQELAVVSLKGVHILQHSLIQASELVLTRLRHQVEQRRRRLQGLEDGAGAGPAENAAS
binding [4]: binds | binding [3]: binds

B6: ITFG2 (no tag named) (protein, UniProt Q969R8 1-447)
chain: MRSVSYVQRVALEFSGSLFPHAICLGDVDNDTLNELVVGDTSGKVSVYKNDDSRPWLTCSCQGMLTCVGVGDVCNKGKNLLVAVSAEGWFHLFDLTPAKVLDASGHHETLIGEEQRPVFKQHIPANTKVMLISDIDGDGCRELVVGYTDRVVRAFRWEELGEGPEHLTGQLVSLKKWMLEGQVDSLSVTLGPLGLPELMVSQPGCAYAILLCTWKKDTGSPPASEGPTDGSRETPAARDVVLHQTSGRIHNKNVSTHLIGNIKQGHGTESSGSGLFALCTLDGTLKLMEEMEEADKLLWSVQVDHQLFALEKLDVTGNGHEEVVACAWDGQTYIIDHNRTVVRFQVDENIRAFCAGLYACKEGRNSPCLVYVTFNQKIYVYWEVQLERMESTNLVKLLETKPEYHSLLQELGVDPDDLPVTRALLHQTLYHPDQPPQCAPSSLQDPT
binding [5]: binds
